Measured values taken from patent publication US20020164640A1.
Results are given in words; binding and its absence hold for the method and conditions named. In cells and extracts the contact can be indirect. Some binding calls cover weakened binding; strength is not graded here. Tags and fused reporters may be left off the sequences shown.

Protein sequences, listed by entry. Tags and fused reporters are not part of them. Residues count along the entry.
UniProt Q99836, residues 152-296: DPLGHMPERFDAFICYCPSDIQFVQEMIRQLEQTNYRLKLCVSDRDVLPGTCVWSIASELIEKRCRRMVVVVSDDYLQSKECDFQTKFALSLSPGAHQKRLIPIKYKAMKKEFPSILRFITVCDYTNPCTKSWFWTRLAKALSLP

What was measured:
myc-IRAK-2 = biological target: T1, myc-IRAK-2 (UniProt O43187); experiment: co-immunoprecipitation from transfected HEK293 cells: anti-HA IP, anti-myc immunoblot
T1 sequence (looked up): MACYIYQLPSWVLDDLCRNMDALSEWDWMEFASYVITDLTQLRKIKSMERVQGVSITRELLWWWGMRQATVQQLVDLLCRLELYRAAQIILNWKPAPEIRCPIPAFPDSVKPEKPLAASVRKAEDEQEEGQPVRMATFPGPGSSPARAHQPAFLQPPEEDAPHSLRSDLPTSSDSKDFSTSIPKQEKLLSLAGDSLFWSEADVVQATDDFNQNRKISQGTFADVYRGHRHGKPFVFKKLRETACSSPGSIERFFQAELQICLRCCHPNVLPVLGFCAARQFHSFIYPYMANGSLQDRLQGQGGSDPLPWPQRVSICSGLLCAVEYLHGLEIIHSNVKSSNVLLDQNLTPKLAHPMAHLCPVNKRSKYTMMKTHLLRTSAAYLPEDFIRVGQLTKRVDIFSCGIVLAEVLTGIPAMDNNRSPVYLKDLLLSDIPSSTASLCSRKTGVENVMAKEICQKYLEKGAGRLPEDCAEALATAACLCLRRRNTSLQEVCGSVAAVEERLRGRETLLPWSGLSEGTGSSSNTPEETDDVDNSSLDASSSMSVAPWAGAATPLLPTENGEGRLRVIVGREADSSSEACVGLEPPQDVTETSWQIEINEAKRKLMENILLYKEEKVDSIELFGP

[1] = biological target: labelled TIR domain of MyD88 (AU-1-TIR-MyD88) (UniProt Q99836); experiment: co-immunoprecipitation from transfected HEK293 cells: anti-AU1 IP, anti-HA immunoblot

binding (myc-IRAK-2): binds
binding [1]: binds
B1: labelled TIR domain of MAL-1 (HA-TIR-MAL-1) (protein, not shown: small tags and cut ends)
chain: YDVCVCHSEEDLVAAQDLVSYLEGSTASLRCFLQLRDATPGGAIVSELCQALSSSHCRVLLITPGFLQDPWCKYQMLQALTEAPGAEGCTIPLLSGLSRAAYPPELRFMYYVDGRGPDGGFRQVKEAVMRCKLLQEGEGERDSATVSDLL
